Results are given in words; binding and its absence hold for the method and conditions named. Some entries that bind do so weakly or less than the wild type.

For this assay, the target named is T1, full-length human KIF5A-mScarlet-StrepII (human), Q12840.
T1 chain: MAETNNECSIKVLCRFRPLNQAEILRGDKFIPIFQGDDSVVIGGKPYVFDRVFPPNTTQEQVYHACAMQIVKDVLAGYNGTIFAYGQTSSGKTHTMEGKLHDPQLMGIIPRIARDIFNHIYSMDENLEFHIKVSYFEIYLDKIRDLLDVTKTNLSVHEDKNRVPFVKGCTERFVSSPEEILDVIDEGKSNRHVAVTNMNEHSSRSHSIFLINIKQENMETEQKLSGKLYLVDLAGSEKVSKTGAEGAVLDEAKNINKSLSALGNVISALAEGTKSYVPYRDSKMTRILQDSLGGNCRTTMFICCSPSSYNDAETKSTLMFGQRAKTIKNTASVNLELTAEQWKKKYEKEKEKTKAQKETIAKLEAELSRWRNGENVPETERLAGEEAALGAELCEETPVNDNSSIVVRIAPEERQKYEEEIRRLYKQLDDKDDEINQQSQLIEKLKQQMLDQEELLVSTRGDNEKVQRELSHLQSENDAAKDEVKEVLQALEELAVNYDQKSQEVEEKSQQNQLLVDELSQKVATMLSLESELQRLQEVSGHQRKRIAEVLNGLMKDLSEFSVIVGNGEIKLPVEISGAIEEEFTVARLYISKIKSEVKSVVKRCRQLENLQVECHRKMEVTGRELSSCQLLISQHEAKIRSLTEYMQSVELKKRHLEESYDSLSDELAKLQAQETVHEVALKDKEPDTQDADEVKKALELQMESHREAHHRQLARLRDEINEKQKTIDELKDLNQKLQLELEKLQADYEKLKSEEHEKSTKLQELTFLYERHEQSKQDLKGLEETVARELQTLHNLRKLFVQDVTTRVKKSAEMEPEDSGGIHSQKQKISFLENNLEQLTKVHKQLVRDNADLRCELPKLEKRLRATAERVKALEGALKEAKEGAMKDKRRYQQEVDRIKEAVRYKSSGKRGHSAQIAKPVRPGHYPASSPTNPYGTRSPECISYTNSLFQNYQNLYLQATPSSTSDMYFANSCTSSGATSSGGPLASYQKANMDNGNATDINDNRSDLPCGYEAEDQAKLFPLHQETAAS
Kind of assay: SEC-MALS; KIF5-KLC1 complexes co-expressed in Sf9 and co-purified; BioSep SEC-s4000 column, GF150 buffer (25 mM HEPES-KOH, 150 mM KCl, 2 mM MgCl2); both purified. The settings on record: remark: other sources report otherwise. On the technique in general: Size exclusion chromatography separates by hydrodynamic size, large species first.

B1: full-length human KIF5A-mScarlet-StrepII, Q12840 1-1032 (natural protein)
chain: T1 chain
As to B1, the binding entry is reported as “binds”.

The values are drawn from article PMC9365671.
